PubChem BioAssay AID540276 (National Center for Advancing Translational Sciences (NCATS), 2011)
The campaign covered roughly 300,000 compounds. About 5,400 (1.8%) were called active. This list was built around the results that the source calls inconclusive (neither active nor inactive); the mix of calls is not that of the screen. The call rests on the fitted dose curve; tested in HEK293 cells. Potencies of inconclusive entries are doubtful fits and often do not repeat.

Assay: qHTS for inhibitors of binding or entry into cells for Marburg Virus
Details: Marburg virus pseudotyped entry inhibition, cell reporter; activity change, negative = inhibition: at 37.8 µM (top of the series) unless noted
On the % scale 0 is the no-effect control and ±100 the full control effect; potency means the concentration at half of the fitted maximal effect.

Compound	Potency	activity change, negative = inhibition
COc1cccc(OC)c1CN1CCCC(C(=O)c2ccccc2SC)C1 (centres undefined)	active: 6.31 µM	
CC1Cc2ccccc2N1C(=O)c1ccc(F)c(S(=O)(=O)N2CCOCC2)c1 (centres undefined)	inactive	
O=S(=O)(Nc1cccc(-c2ccc3nncn3n2)c1)c1cccs1	inactive	
COc1ccccc1NS(=O)(=O)c1cccc(C(=O)N/N=C/c2ccc3c(c2)OCCO3)c1	inactive	
CCN(CC)S(=O)(=O)c1ccc(Cl)c(NC(=O)c2ccncc2)c1	inconclusive: 3.55 µM [activator, single point]	
CCCn1cccc(C(=O)Nc2ccc(OC)cc2)c1=O	inconclusive: 15.8 µM [activator, partial curve]	
CNC(=S)N1N=C(c2ccc(OC)cc2)CC1c1ccc(N(C)C)cc1 (centres undefined)	inconclusive: 1.41 µM [inhibitor, full curve, poor fit]	
CC1(C)Cc2cccc(OCC(=O)OCc3nnc(-c4ccccc4)o3)c2O1	inconclusive: 25.1 µM [inhibitor, single point]	
Nc1c(C(=O)N/N=C/c2ccc(F)cc2)oc2nc(-c3ccccc3)cc(-c3ccco3)c12	inconclusive: 2.51 µM [inhibitor, partial curve, poor fit]	
CCOc1ccc2nc(N3CCCC(C(=O)Nc4ccccc4CC)C3)sc2c1 (centres undefined)	inactive	
CCC(Sc1ccccn1)C(=O)Nc1nnc(C)s1 (centres undefined)	inconclusive: 1.41 µM [inhibitor, single point]	
CC(C1CC2CCC1C2)N1CC(O)=C(c2nc3ccccc3[nH]2)C1=N (centres undefined)	inconclusive: 35.5 µM [inhibitor, single point]	
O=C(c1ccccc1NS(=O)(=O)c1ccc2c(c1)OCCO2)N1CCOCC1	inactive	
Fc1ccc(-c2cc(-c3ccc(F)cc3)c3c(n2)-c2cc(F)ccc2OC3)cc1	inactive	
CC(=O)c1ccc(NC(=O)c2ccc(-n3cnnn3)cc2)cc1	inactive	
Fc1ccc(Nc2nc(-c3cccc(Cl)c3)c3c(n2)-c2ccccc2OC3)c(F)c1	inconclusive: 3.55 µM [activator, single point]	
O=Cc1cc(Cl)ccc1OCCN1CCC(Cc2ccccc2)CC1	inconclusive: 17.8 µM [inhibitor, partial curve, poor fit]	
O=C(NNc1c2ccccc2nc2ccccc12)c1cc2ccccc2cc1O	active: 3.16 µM	
CCCCCCCSc1nsc(N)n1	inconclusive: 32.6 µM [inhibitor, partial curve, poor fit]	
Cn1c(=O)n(Cc2ccccc2F)c(=O)c2c1nc1n2CCN1Cc1ccco1	inactive	
Cc1cccc(NC(=O)Cn2c(=O)n(CC3CCC(C(=O)NCCc4ccccc4)CC3)c(=O)c3ccccc32)c1 (centres undefined)	inactive	
Nc1ncc2c(n1)-c1ccoc1CC2	inconclusive: 0.794 µM [inhibitor, single point]	
Cc1ccc(CN2CCC(Oc3cccc(C(=O)N(C)CCN(C)C)c3)CC2)cc1C	inconclusive: 5.62 µM [inhibitor, full curve, poor fit]	
Cc1ccc2[nH]c3c(N4CCN(Cc5ccc6c(c5)OCO6)CC4)ncnc3c2c1	inactive	
CCCCC1(C)OC(=O)C(=Cc2c[nH]c3ccccc23)C(=O)O1 (centres undefined)	inactive	

Compound	Potency	activity change, negative = inhibition
CC1CCN(Cc2nc3c(c(=O)n(C)c(=O)n3C)n2CCc2ccccc2)CC1	inconclusive: 17.8 µM [activator, partial curve, poor fit]	
CC1Oc2ccccc2N(CC(=O)c2ccccc2)C1=O (centres undefined)	inactive	
Cc1ccc2c(c1)C1C=CCC1C(C(=O)O)N2 (centres undefined)	inactive	
COc1ccc(C(=O)N2CCN(C(=O)c3ccc(-c4ccccc4)cc3)CC2)cc1OC	inconclusive: 31.6 µM [inhibitor, single point]	
c1ccc(Sc2ncnc3c2oc2ccccc23)cc1	inconclusive: 29.1 µM [inhibitor, single point]	
CCOC(=O)C[n+]1c(C)csc1C	inactive	
CCN1/C(=C\C=C\C2=[N+](CC)c3ccccc3C2(C)C)C(C)(C)c2ccccc21	active: 0.708 µM	
COc1ccccc1C1C(C(=O)c2ccco2)=C(O)C(=O)N1c1cc(C)on1 (centres undefined)	inconclusive: 7.94 µM [inhibitor, partial curve, poor fit]	
Cc1ccc(CSc2nc3c(c(=O)[nH]2)C(c2ccncc2)C2=C(CCCC2=O)N3)cc1 (centres undefined)	inconclusive: 29.1 µM [inhibitor, single point]	
Fc1ccc2nc(N3CCOCC3)sc2c1	inactive	
Cc1ccc(CNc2oc(-c3cccs3)nc2C#N)cc1	inactive	
c1cncc(-c2noc(-c3cccc4ccccc34)n2)c1	inconclusive: 0.259 µM [activator, partial curve, poor fit]	
COc1ccc(/C=c2\s/c(=C\C(=O)C(C)(C)C)[nH]c2=O)cc1O	inactive	
CN1CCOC1c1ccc(C2OCCN2C)cc1 (centres undefined)	inactive	
Cc1nnc2c(N(C)S(=O)(=O)c3ccccc3)nc3ccccc3n12	inactive	
NCCCP(=O)(O)O	inconclusive: 0.0891 µM [inhibitor, full curve, poor fit]	
Cc1ccccc1-c1nc(CS(=O)(=O)CC(=O)N2CCCCC2)c(C)o1	inconclusive: 25.1 µM [inhibitor, single point]	
CS(=O)(=O)N(Cc1ccccc1)c1ccccc1C(=O)N1CCN(c2ccccc2)CC1	inactive	
Cc1cccc(C)c1-n1c(C)cc(/C=C2\C(=O)NN(c3ccccc3)C2=O)c1C	inconclusive: 6.51 µM [inhibitor, single point]	
Cc1cccc(N2CCN(c3nc4ccccc4c4nnc(C)n34)CC2)c1C	inactive	
COc1ccc(CNC(=O)Cn2cccc2C(=O)c2ccccc2C)cc1	inconclusive: 20 µM [activator, single point]	
CN(C)c1ccc(C=C2C=CC=C2)cc1	inactive	
O=C(NCCSCc1ccccc1)c1cc(S(=O)(=O)N2CCOCC2)ccc1F	inactive	
O=S(=O)(NCC(c1ccccc1)N1CCc2ccccc21)c1ccc(Cl)cc1 (centres undefined)	inconclusive: 25.1 µM [inhibitor, single point]	
Cc1ccc(NC(=O)CSc2nc3ccccc3c(=O)n2CCCC(=O)NCCCN2CCOCC2)cc1	inconclusive: 2.82 µM [inhibitor, partial curve, poor fit]	

Rewritten field by field: part of the list above.
CC1CCN(Cc2nc3c(c(=O)n(C)c(=O)n3C)n2CCc2ccccc2)CC1
  Potency: inconclusive: 17.8 µM [activator, partial curve, poor fit]
Cc1ccc2c(c1)C1C=CCC1C(C(=O)O)N2 (centres undefined)
  Potency: inactive
COc1ccc(/C=c2\s/c(=C\C(=O)C(C)(C)C)[nH]c2=O)cc1O
  Potency: inactive
COc1ccc(CNC(=O)Cn2cccc2C(=O)c2ccccc2C)cc1
  Potency: inconclusive: 20 µM [activator, single point]

Full records as entered above.
`Cc1ccc(CSc2nc3c(c(=O)[nH]2)C(c2ccncc2)C2=C(CCCC2=O)N3)cc1` (centres undefined) in the list: Potency: inconclusive: 29.1 µM [inhibitor, single point]
`CCC(Sc1ccccn1)C(=O)Nc1nnc(C)s1` (centres undefined) in the list: Potency: inconclusive: 1.41 µM [inhibitor, single point]

The listing continues:

Compound	Potency	activity change, negative = inhibition
CSCCC(C(=O)N1CC2(C)CC1CC(C)(C)C2)N1C(=O)c2ccccc2C1=O (centres undefined)	inconclusive: 11.2 µM [inhibitor, partial curve, poor fit]	
CCOC(=O)c1cnc(-n2nc(C)cc2C)nc1Nc1ccc(OC)cc1	inconclusive: 29.1 µM [inhibitor, single point]	
OCCCNC(=S)Nc1ccc(Nc2ccccc2)cc1		inconclusive: 43.2% [activator] [at 46.1 µM]
Cc1cc(C([O-])=C(C(=S)Nc2ccc(F)cc2)[n+]2ccccc2)c(C)n1-c1ccc(F)cc1	inactive	
O=C(/C=C/c1cc2ccccc2o1)c1ccccc1O	inactive	
COc1ccccc1/C=C/C(=O)Nc1nc2n(n1)C(c1ccc(F)cc1)C=C(c1ccccc1)N2 (centres undefined)	inconclusive: 2.82 µM [inhibitor, full curve, poor fit]	
Cc1ccc(OCCn2c(C3CC(=O)N(Cc4ccc(F)cc4)C3)nc3ccccc32)c(C)c1 (centres undefined)	inconclusive: 35.5 µM [inhibitor, single point]	
CCOC(=O)C1=C(C)NC2=C(C(=O)C(C(=O)OCC)C(c3cccc(OC)c3)C2)C1c1ccccn1 (centres undefined)	inactive	
CCOc1cc(C(=O)OCc2ccc(C(=O)OC)o2)cc(Br)c1OC	inconclusive: 1.3 µM [inhibitor, partial curve, poor fit]	
O=C(CCCC(=O)N(c1ccc2c(c1)OCCO2)C(C(=O)NC1CCCCC1)c1ccc(Cl)cc1)Nc1ccccn1 (centres undefined)	inconclusive: 3.66 µM [inhibitor, single point]	
O=C(NCCCN1CCOCC1)C(Cl)(Cl)Cl	inactive	
COc1ccc(C2CC(C(F)(F)F)n3ncc(C(=O)Nc4cccc(O)c4)c3N2)cc1OC (centres undefined)	inconclusive: 0.794 µM [inhibitor, full curve, poor fit]	
CC(C)CN(C(=O)COC(=O)c1ccccc1SCC(=O)N1CCCC1)C1CCS(=O)(=O)C1 (centres undefined)	inconclusive: 11.2 µM [activator, partial curve]	
O=C(NCc1ccco1)C(C(=O)c1ccc(F)cc1)n1ccccc1=O (centres undefined)	inactive	
CC(C)(C)n1nnnc1C(c1cccc(C#N)c1)N1CCCc2ccccc21 (centres undefined)	inactive	
CCn1c(=O)c(=O)[nH]c2cc(C(=O)N3CCN(c4ccccc4F)CC3)ccc21	inconclusive: 0.794 µM [inhibitor, single point]	
COc1ccc(C(=O)Nc2ccc(C(=O)N3CCOCC3)cc2)cc1OC	inactive	
CC(=O)NC(Cc1cccc(C)c1)C(=O)NC1CCN(C(=O)c2ccc([N+](=O)[O-])cc2)CC1 (centres undefined)	inactive	
CCOC(=O)C1NC2CCC(OCC)CC2C1CCCN1C(=O)C2=C(CCCC2)C1=O (centres undefined)	inactive	
Cc1ccc(C)c(CN2C(=O)c3ccccc3S(=O)c3ccc(C(=O)N4CCCCC4)cc32)c1 (centres undefined)		inconclusive: 2.21% [activator] [at 46.1 µM]
Cc1nnc(C)c2c(C)n(-c3ccc(Br)cc3)c(C)c12	inactive	
Cc1cccc(C(=O)NC(=S)NNC(=O)Cc2ccccc2)c1	inactive	
Cc1cc(Nc2cccc(Cl)c2)nc(N2CCOCC2)n1	inconclusive: 0.146 µM [inhibitor, full curve]	
Cc1ccc(C(=O)COC(=O)c2cc(=O)[nH]c3ccccc23)cc1C	inconclusive: 15.8 µM [activator, single point]	
